Data taken from patent publication US20060253917A1.
No constants are given. Whether binding was seen depends on the method and setting. Some results given as binding are weak or reduced against the parent protein; the word gives no strength.

Amino acid sequences for entries named in this document (tags omitted). A change or cut given only in a name is not applied to a line headed by its entry.
UniProt A2YH60: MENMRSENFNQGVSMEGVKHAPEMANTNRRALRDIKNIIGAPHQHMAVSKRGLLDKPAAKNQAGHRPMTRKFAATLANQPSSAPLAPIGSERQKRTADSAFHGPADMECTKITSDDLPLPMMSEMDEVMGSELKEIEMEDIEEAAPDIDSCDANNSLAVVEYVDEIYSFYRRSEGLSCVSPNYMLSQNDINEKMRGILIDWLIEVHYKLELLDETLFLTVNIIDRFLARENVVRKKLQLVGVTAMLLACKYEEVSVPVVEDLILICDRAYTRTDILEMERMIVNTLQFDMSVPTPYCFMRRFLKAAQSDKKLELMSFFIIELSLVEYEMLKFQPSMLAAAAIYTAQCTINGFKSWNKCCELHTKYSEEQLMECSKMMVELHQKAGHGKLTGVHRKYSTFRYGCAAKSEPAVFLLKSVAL

Columns and labels:
[1] = target: T1, Os018049-3655 aa 1-148 (Oryza sativa); test: Y2H; output trait library
T1 sequence: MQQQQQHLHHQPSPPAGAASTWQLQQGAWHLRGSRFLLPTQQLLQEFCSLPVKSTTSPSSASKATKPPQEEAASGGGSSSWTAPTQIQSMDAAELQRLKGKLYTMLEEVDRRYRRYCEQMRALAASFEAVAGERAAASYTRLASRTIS

[2] = target: OsE2F2 (367), bait fragment not printed for this prey (Oryza sativa); test: Y2H; input trait library
[3] = target: T2, Os006819-2510 aa 1-273 (Oryza sativa); test: Y2H; output trait library
T2 sequence: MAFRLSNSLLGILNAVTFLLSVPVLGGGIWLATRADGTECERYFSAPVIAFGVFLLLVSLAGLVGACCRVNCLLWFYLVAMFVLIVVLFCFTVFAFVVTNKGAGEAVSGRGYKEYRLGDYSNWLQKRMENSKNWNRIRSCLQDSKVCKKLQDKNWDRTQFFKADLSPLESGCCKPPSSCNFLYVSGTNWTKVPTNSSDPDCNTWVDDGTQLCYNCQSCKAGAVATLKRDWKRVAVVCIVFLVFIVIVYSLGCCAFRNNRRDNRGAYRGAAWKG

[4] = target: T3, Os006819-2510 aa 1-150 (Oryza sativa); test: Y2H; input trait library
T3 sequence: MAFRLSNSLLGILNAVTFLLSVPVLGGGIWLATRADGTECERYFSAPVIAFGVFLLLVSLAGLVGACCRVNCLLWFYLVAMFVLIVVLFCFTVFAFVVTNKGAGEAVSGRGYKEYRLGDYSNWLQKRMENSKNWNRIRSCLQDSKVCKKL

[5] = target: T4, OsSGT1 aa 200-368 (Oryza sativa) (UniProt Q0JL44); test: Y2H; output trait library
T4 sequence: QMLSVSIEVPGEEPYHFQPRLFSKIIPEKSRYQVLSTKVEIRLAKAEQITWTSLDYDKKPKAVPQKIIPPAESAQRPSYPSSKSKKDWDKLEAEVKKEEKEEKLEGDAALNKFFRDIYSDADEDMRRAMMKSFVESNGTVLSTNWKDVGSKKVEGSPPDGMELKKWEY

[6] = target: T5, OsCS aa 316-583 (Oryza sativa) (UniProt A2Y0X2); test: Y2H; output trait library
T5 sequence: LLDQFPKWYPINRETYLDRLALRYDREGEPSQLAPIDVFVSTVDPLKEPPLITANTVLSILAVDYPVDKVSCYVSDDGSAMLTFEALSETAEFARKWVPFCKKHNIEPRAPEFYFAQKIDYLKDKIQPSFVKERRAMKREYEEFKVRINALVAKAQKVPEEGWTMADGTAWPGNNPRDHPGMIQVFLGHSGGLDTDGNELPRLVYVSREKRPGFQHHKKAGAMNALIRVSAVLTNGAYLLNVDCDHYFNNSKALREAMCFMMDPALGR

[7] = target: T6, OsCYCOS2 aa 50-233 (Oryza sativa) (UniProt A2YH60); test: Y2H; output trait library
T6 sequence: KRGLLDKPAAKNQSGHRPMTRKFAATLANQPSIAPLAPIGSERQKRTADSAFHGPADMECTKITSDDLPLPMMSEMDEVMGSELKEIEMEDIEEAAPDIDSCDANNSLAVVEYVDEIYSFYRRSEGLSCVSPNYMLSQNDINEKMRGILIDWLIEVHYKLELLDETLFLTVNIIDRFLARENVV

[8] = target: T6, OsCYCOS2 aa 50-233 (Oryza sativa); test: Y2H; input trait library

B1: OsPN23830 aa 89-250 (protein)
chain: LASQTYDLVDAHIQQLDQFMRKLEELRQEKEAATTAAAAAAAAAASVATGTPVAATVTASAGTSTADNTPKGGRSSERGRGGRKKTAKVPTEQPAPAIDLELPVDPNEPTYCLCNQVSYGEMVACDNNDCKIEWYHFGCVGVKEHPKGKWYCPSCIGFQKKR
B1 was tested, and the binding [1] was “binds”.

B2: OsPN31182 aa 124-324 (protein)
chain: GLRQFSMKVCEKVESKGRTTYNEVADELVAEFADPNNSILPPDPDNPNAQQYDEKNIRRRVYDALNVLMAMEIISKDKKEIQWKGLPRTSINDIEDLQTELVGLKSRIEKKNTYLQELQDQFVGMQKLIQRNEQLYGSGNIPSGGVALPFILVQTRPHATVEVEISEDMQLVHFDFNSTPFELHDDSFVLKAMSSCGEEQI
With B2 the binding [2] was “binds”.

B3: OsPN31182 aa 72-255 (protein)
chain: GAAAASTPISENTFLRLNDLDIHGDDAPSSQAPTSKKKKRGARAVGPDKGGRGLRQFSMKVCEKVESKGRTTYNEVADELVAEFADPNNSILPPDPDNPNAQQYDEKNIRRRVYDALNVLMAMEIISKDKKEIQWKGLPRTSINDIEDLQTELVGLKSRIEKKNTYLQELQDQFVGMQKLIQRN
For B3, the binding [2] was “binds”.

B4: OsPN31182 aa 156-334 (protein)
chain: ADPNNSILPPDPDNPNAQQYDEKNIRRRVYDALNVLMAMEIISKDKKEIQWKGLPRTSINDIEDLQTELVGLKSRIEKKNTYLQELQDQFVGMQKLIQRNEQLYGSGNIPSGGVALPFILVQTRPHATVEVEISEDMQLVHFDFNSTPFELHDDSFVLKAMSSCGEEQIDGIHDLISNG
In the case of B4, the binding [2] is reported as “binds”.

For KGPWKQKKIKNPNYQGKWK [OsCRTC aa 283-301], the binding [3] was “binds”.

GEHHKKDGEHKEGVVEKIKDKITGDHGDGGEH [OsLIP5 aa 29-60] was tested, and the binding [4] was “binds”.

For GEKKGFMDKIKEKLPGQH [OsRAB16B aa 147-164], the binding [3] was “binds”.

B5: PN23914 aa 1-263 (protein)
chain: MEGGGEVGWYVLGPNQEHVGPYALSELREHFANGYISESSMLWAEGRSEWMPLSSIPDLLAVVTKKDQPDEGIEDDFDKFQKEVIEAEAEVEASTDKAADNDINQEHGADDPDDRPATPPDGEDEFTDDDGTVYKWDRVLRAWVPQDDLEGKNDNYEVEDMTFAHEEEVFQAPDIAGSTTLEENNVSAEIEIKEPPKVEKRAHKKRKSSEKPADKKEAYKPPDSWVDLKVNTHVYVTGLPDDVTAEEIVEVFSKCGIIKEDPE
In the case of B5, the binding [5] is reported as “binds”.

B6: OsPN29119 prey clone -53 to 155 (protein)
chain: MEFEADGARWPEPRGDAAGAPPLERGDAPSPRFDSSRALRLLRELGSNVTEDLVVLMPNLLSFLKHDDPVVVNQSIASGTNLFAAVLEEMTLQINKCGRVDAWLEEMWAWTKQFKDAVHNLIHESVPVATKLFAVKFIETWILCFAPQSKSDRMQ
For B6, the binding [6] was “binds”.

B7: PN30899 aa 4-228 (protein)
chain: DSLKRKTYDDELRREELLNYFRRFQSASQKKGGSGIFRQGFSPSEGVDEGPYGLSRRIACKKCGDFHLWIYTGRAKSQARWCQDCNDFHQAKDGDGWVEQSFQPVLFGLLHKPELPHAYVCAESIIFDVTEWFTCQGMRCPANTHKPSFHVNASLLKQNSGKGSTSAQRGGGIPNGVNMDGGIDEEEFFEWLQNALQSGMFESFGAQNEPPSPGSGSNAKGSNSS
B7 was tested, and the binding [7] was “binds”.

B8: PN23363 aa 50-148 (protein)
chain: EEEVAAASAETEEHVQRILLAIDAFTRQVSEMLEAGRALFKNLAADFEDRLCSIHKERVERWEEEIRELRARDAANEQARSLLHNAQLHLLATVRHDHT
With B8 the binding [8] was “binds”.

B9: OsPN26688 aa 132-225 (protein)
chain: PFFDYIQREIAQIKFSITRTAEMEDRLIELEAMQKVLLEGVEAYDKLQNDLVSAKERLTKILQSSDKKSTLLEMVERNELNMSILTLLDENIAS
B9 was tested, and the binding [8] was “binds”.
